## Results of single-concentration screens

From ChEMBL document CHEMBL3988442, “University of Dundee, Small-Polar-MMV Screening Library” (2021).

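Whole-parasite assay of Trypanosoma brucei over 72 hours; the read-out is not stated. Tested at 30 µM. Higher reads as stronger inhibition (inferred: compounds with an IC50 in retests scored well above the rest). Values scatter widely below zero; nearly all retest evidence comes from the higher of the two concentrations used. About 64,000 compounds were tested under these conditions; 1.5% (about 940) showed 50% or more at least once.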

Each number is a percent effect as filed. The controls that fix the scale are not given in the record; negative values are as filed. The compounds are a random part of those screened.

With Cc1cc(NC(=O)N(Cc2ccc(C#N)cc2)C(C)C)no1 the screen gave -37.21%.
With CN(C)C(=O)N1CCC2(CCCN(c3ncccn3)C2)C1.O=C(O)C(F)(F)F (configuration not stated) the screen gave -58.91%.
With Cc1cnc(N2CCCn3c(nnc3CN(C)C(C)C)C2)nc1.O=C(O)C(F)(F)F the screen gave -46.15%.
With CSc1ccc(NC(=O)Nc2ccc3c(c2)N(S(C)(=O)=O)CC3)cc1 the screen gave 44.14%.
With CCN(C)CC1CCN(C(=O)NCCC2Cc3ccccc3C2)C1 (configuration not stated) the screen gave -72.16%.
With CC(O)CN1CCN(C(=O)c2cccn2Cc2ccncc2)CC1 (configuration not stated) the screen gave -27.46%.
With CC(C)NC(=O)N[C@H]1C[C@@H](c2nc(-c3ccc(F)cc3)no2)N(C)C1 the screen gave -15.22%.
With CCNC(=O)N1CCN(c2nc3ccccc3n2C)CC1 the screen gave -6.474%.
With CCOc1ccc(CN2CCN(C(=O)c3ccc(C)n3C)CC2)cc1 the screen gave 6.439%.
With CN(C)c1ccc(C(=O)N2CCN(Cc3cscn3)CC2)cc1F the screen gave 7.604%.
With Cc1ncc2c(n1)CN(CC(O)COc1ccc(C#N)cc1)CC2 (configuration not stated) the screen gave 2.171%.
With CS(=O)(=O)NCc1cn2c(n1)CN(Cc1cccnc1)CC2.O=C(O)C(F)(F)F.O=C(O)C(F)(F)F the screen gave -26.09%.
With CS(=O)(=O)N1CCCC12CCCN(c1nccs1)C2 (configuration not stated) the screen gave -41.96%.
With CCOCC1CCN(C(=O)Nc2ccc3c(c2)CCCO3)C1 (configuration not stated) the screen gave -6.207%.
With O=C(c1ccccn1)N1CCc2c(nc(-c3ccncc3)[nH]c2=O)C1 the screen gave -42.25%.
With Cn1cnc(S(=O)(=O)NCC2(O)CCOc3ccccc32)c1 (configuration not stated) the screen gave -52.99%.
With Cc1cccn2cc(CNS(=O)(=O)N3CCOCC3)nc12 the screen gave -60.19%.
With CN1CCC(Oc2ccc(-n3ccnc3-c3ccncc3)cc2)CC1 the screen gave -13.77%.
With CNc1cncc(C2CCCN(S(C)(=O)=O)C2)n1 (configuration not stated) the screen gave -4.036%.
With Cc1cc(-c2cc(F)ccc2C(=O)O)nc(C2CCCN(C)C2)n1 (configuration not stated) the screen gave -8.17%.
With CCN1CCC2(CC1)NC(=O)c1cc(Br)ccc1-n1nnnc12 the screen gave 0.9763%.
With CCc1c(O)nc2nc(N3CCCC3)nn2c1C the screen gave 0.01713%.
With COc1cc(F)c(CN2CC[C@@](O)(C3CC3)[C@H](C)C2)cc1OC the screen gave -49.17%.
With Cc1csc2ncc(-c3ccnc(N4CCCN(C)CC4)n3)c(=O)n12 the screen gave 10.44%.
With N#Cc1c(Cl)nsc1N1CCN(CC2CCCCC2)CC1 the screen gave 100.2%.
With Cc1cnn(C2CN(CCCOc3ccc(C#N)cc3)C2)c1 the screen gave -119.9%.
With CS(=O)(=O)N1CCC(CNc2cc(Cl)ccc2C#N)CC1 the screen gave -24.85%.
With Cc1ccc(CN2CCC3(CC(=O)N(c4cccc(F)c4)C3)C2)o1.O=C(O)C(F)(F)F (configuration not stated) the screen gave -261.5%.
With O=C(O)C(F)(F)F.[H][C@@]12COC[C@]1([H])[C@H](OCc1csc(C)n1)CN2Cc1ccsc1 the screen gave -15.95%.
With O=S(=O)(NC1=NCN(CCc2cccs2)CN1)c1ccc(F)cc1 the screen gave 7.283%.
With N#Cc1ccc(CN(CC(N)=O)Cc2cccc(F)c2)cc1 the screen gave -7.427%.
With Nc1cc2c(nn1)CCN(C(=O)c1ccc(Oc3cccnc3)cc1)C2 the screen gave 19.36%.
With CC(=O)N1CCC(c2nc3ccc(NC4CCC4)cn3n2)CC1.O=C(O)C(F)(F)F the screen gave 1.904%.
With O=C(CCC(=O)N1CCOCC1)NCc1cccnc1-n1cccn1 the screen gave -14.23%.
With COc1nc2c(cc1C(=O)NCCc1nc3c(s1)CCC3)CCC2 the screen gave -33.35%.
With NC(=O)CCCNC(=O)CCc1cc(Br)cs1 the screen gave 9.432%.
With CN1CCN(c2ncc3c(c2C(=O)O)CCN(C2CCOC2)C3)CC1.O=C(O)C(F)(F)F.O=C(O)C(F)(F)F (configuration not stated) the screen gave -46.74%.
With Cc1cccc(OC2CCN(Cc3ncc[nH]3)CC2)c1 the screen gave -47.04%.
With CCc1nc(C2CCCN2CCCS(N)(=O)=O)no1 (configuration not stated) the screen gave -2.501%.
With NCc1cnn(-c2ccccc2C(=O)NCCCn2ccnc2)c1 the screen gave 11.88%.
With Cc1cnn(CCC(=O)NS(=O)(=O)N2CCCc3ccccc32)c1 the screen gave 13.68%.
With COc1cc2c(cc1CNC(Cc1cccs1)c1nccs1)OCCO2.Cl (configuration not stated) the screen gave -11.05%.
With O=C(O)C(F)(F)F.O=C(O)C(F)(F)F.[H][C@@]12CN(Cc3nccs3)C[C@H](C(=O)NCCOC)[C@]1([H])CCO2 the screen gave 0.02648%.
With CCN1CC2(CCC1=O)CCN(Cc1cc(F)ccc1Cl)CC2 the screen gave -0.3108%.

3 of the entries, repeated:

For NC(=O)CCCNC(=O)CCc1cc(Br)cs1 the result was 9.432%.
For NCc1cnn(-c2ccccc2C(=O)NCCCn2ccnc2)c1 the result was 11.88%.
For CCNC(=O)N1CCN(c2nc3ccccc3n2C)CC1 the result was -6.474%.